Some of the results follow.
These sequences were tested against OsWRKY34 (Oryza sativa, UniProt Q0JBA9 1-250) (assay: protein-binding microarray (RPBM); PBS, 2% BSA, 51.3 ng/ul salmon testes DNA, 50 uM zinc acetate, 200 nM TF, 25 C, 1 h; high values mean tight binding). Conditions: protein: recombinant; tags: N-terminal polyhistidine and DsRed monomer fusion (pET32a); label: CyDye5-dUTP incorporated in the synthesized complementary strand; 3' TTTTT single-stranded linker to array surface; dsDNA, one strand shown.
Summary of the method: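 Binding signal is defined as the fluorescence intensity of each feature in arbitrary units, read on an Axon 4000B scanner. Transcription factors with N-terminal polyhistidine and DsRed fusions came from E. coli BL21-CodonPlus and were purified on Ni–NTA. They were incubated at 200 nM for 1 h at 25 °C on a custom Agilent array that had been made double-stranded with Cy5-dUTP, with 50 µM zinc acetate present, and the array was washed.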

Chains of the proteins cited; added tags and fusions are not shown.
UniProt Q0JBA9, entry or part of it: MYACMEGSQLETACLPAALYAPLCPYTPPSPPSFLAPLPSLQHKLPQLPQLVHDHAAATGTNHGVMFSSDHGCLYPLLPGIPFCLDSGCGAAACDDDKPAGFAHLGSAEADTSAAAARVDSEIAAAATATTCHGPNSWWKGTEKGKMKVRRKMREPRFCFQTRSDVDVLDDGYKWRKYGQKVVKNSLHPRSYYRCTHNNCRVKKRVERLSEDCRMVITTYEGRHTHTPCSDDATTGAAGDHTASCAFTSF

Sequence	binding signal
ATCCGATTTTTTTTCGCAATCTCCGAAATTTCACTTCTATCGGAGTCACCTAGTGCAG	11200 fluorescence intensity (a.u.)
TTATGATTTCAACATGATAGTTGGGTAGTGATGGTCCACTCGGAGTCACCTAGTGCAG	9630 fluorescence intensity (a.u.)
CTCTGAATCCACACAACCCTATCCTTATCCCCAACGCTACCGGAGTCACCTAGTGCAG	8470 fluorescence intensity (a.u.)
GTCAACTGCCTATCCTAGATATCTATCACTACCGAAAGCCCGGAGTCACCTAGTGCAG	8930 fluorescence intensity (a.u.)
TACATAACCAGTATGTTTTGCTAGCCCATTTGTCTTGTTTCGGAGTCACCTAGTGCAG	9880 fluorescence intensity (a.u.)
GCACACGCATACACATCGCAAGCCGCCCAAACCCTACACACGGAGTCACCTAGTGCAG	9240 fluorescence intensity (a.u.)
CCTATAATTCACCAACCGGCTTTTACATCCTTCATACTTCCGGAGTCACCTAGTGCAG	9490 fluorescence intensity (a.u.)
GCGCCGTGGGGTTCATTGGGACTTGGGAGGGATAGGAAATCGGAGTCACCTAGTGCAG	16300 fluorescence intensity (a.u.)
TTCACTATAAATATATGGTCCACCTGTCTGTCTCACATATCGGAGTCACCTAGTGCAG	12400 fluorescence intensity (a.u.)
GCATATTCATTTTTGCTTTTCAAATTTTATTTTCAAATTTCGGAGTCACCTAGTGCAG	8450 fluorescence intensity (a.u.)
GGAGCAATTTTTATGGGTGGGCTTCGAGCCTTCCTTGTCCCGGAGTCACCTAGTGCAG	10300 fluorescence intensity (a.u.)
TATATTCTCATGCACCAAGCAACCACACGTACACCTATATCGGAGTCACCTAGTGCAG	8020 fluorescence intensity (a.u.)
GCGTGGGGCGCCGGTGGCGGAGGGTGGGGACGACAACCAGCGGAGTCACCTAGTGCAG	9770 fluorescence intensity (a.u.)
CAGTCTTGTCCTTTTGCTTTACAGCCCTTTTGCAAATGCACGGAGTCACCTAGTGCAG	11700 fluorescence intensity (a.u.)
ATTCTTCCGGGGTGTACATTTTAGAGTCCAGTGCAACAGTCGGAGTCACCTAGTGCAG	8220 fluorescence intensity (a.u.)
TTTGCGTAGTGGAGGTTTTTTTCCTTTTTTTTTTTTTTTTCGGAGTCACCTAGTGCAG	11800 fluorescence intensity (a.u.)
ATTGTTGCGGTTTGGACTACTATAAACAACTTTTCTCGTCCGGAGTCACCTAGTGCAG	8970 fluorescence intensity (a.u.)
TCTTGTGTGGGCATCTTAACTTCATATTTGCAATATATTTCGGAGTCACCTAGTGCAG	8860 fluorescence intensity (a.u.)
TCCTTTACCTTTTCTGTACTTGTAGAGTATATTATAATAACGGAGTCACCTAGTGCAG	8890 fluorescence intensity (a.u.)
TTTTCTCAATGCAGTCTTTTTCTGTTGAGGGTGTGTTTAGCGGAGTCACCTAGTGCAG	8540 fluorescence intensity (a.u.)
GTACACGTGGGCGGGGCAGATCGATCTTAGATACATACAGCGGAGTCACCTAGTGCAG	9420 fluorescence intensity (a.u.)

Some of the entries so far, with bars between the fields:
Sequence | binding signal
CTCTGAATCCACACAACCCTATCCTTATCCCCAACGCTACCGGAGTCACCTAGTGCAG | 8470 fluorescence intensity (a.u.)
CCTATAATTCACCAACCGGCTTTTACATCCTTCATACTTCCGGAGTCACCTAGTGCAG | 9490 fluorescence intensity (a.u.)
GCGCCGTGGGGTTCATTGGGACTTGGGAGGGATAGGAAATCGGAGTCACCTAGTGCAG | 16300 fluorescence intensity (a.u.)
TATATTCTCATGCACCAAGCAACCACACGTACACCTATATCGGAGTCACCTAGTGCAG | 8020 fluorescence intensity (a.u.)
CAGTCTTGTCCTTTTGCTTTACAGCCCTTTTGCAAATGCACGGAGTCACCTAGTGCAG | 11700 fluorescence intensity (a.u.)

Following part:

Sequence	binding signal
TTCGTTTGACAATACACTTTCTCAACTTCTACTATCTTATCGGAGTCACCTAGTGCAG	8250 fluorescence intensity (a.u.)
GTGGCTACGTATCAAAGGTGGTTGGGTGGTGGTGGCTACTCGGAGTCACCTAGTGCAG	9720 fluorescence intensity (a.u.)
TACTCCATTCCATCCGTTTGCAAATACTTCTCAATTTTTACGGAGTCACCTAGTGCAG	10400 fluorescence intensity (a.u.)
TTCTATCTTGACTGTTGACTGAAAATTTTACTAGTACCTTCGGAGTCACCTAGTGCAG	9410 fluorescence intensity (a.u.)
ATCCCTCCACCAACCAGCACGTTTTCTCCTCACTTAATCACGGAGTCACCTAGTGCAG	8570 fluorescence intensity (a.u.)
GTGGGGCTCAGGGGTTTATCTCCAATTAGTTTGGAATTCTCGGAGTCACCTAGTGCAG	9710 fluorescence intensity (a.u.)
TTATGTTTTCCGTATGCACTGTTCTGGATGAGCACACGCTCGGAGTCACCTAGTGCAG	9020 fluorescence intensity (a.u.)
GCTCTTATTCCGGGGTTTAAGCGTTTTTACCGAAGCGAAACGGAGTCACCTAGTGCAG	10400 fluorescence intensity (a.u.)
CTGCCTCGCTGCCGCCTGCCGTCTCCCCGGGCCCATCTTTCGGAGTCACCTAGTGCAG	8210 fluorescence intensity (a.u.)
GCCGCCTGCCGCCGCCGCTTGCCCGCTGTGCCACCCACCCCGGAGTCACCTAGTGCAG	8050 fluorescence intensity (a.u.)
ATCTCCGTCGGTGGGGAAAAGGAGGTGGGGAGGGGAGGAGCGGAGTCACCTAGTGCAG	18800 fluorescence intensity (a.u.)
GATTTAAAATATCTTCATTTCCACACAACGTTGACTGGGTCGGAGTCACCTAGTGCAG	9510 fluorescence intensity (a.u.)
CTCTAGCTCGTTGTAGCAATATCTCGTTGTAGCCATTTATCGGAGTCACCTAGTGCAG	8110 fluorescence intensity (a.u.)
CACCCTCGTTTCCACCCGCGCCCGCGCGCCGCGCGCCACTCGGAGTCACCTAGTGCAG	10800 fluorescence intensity (a.u.)
GACATTACGGGCCCACAAGTACGCGTCCCCACCAGCCATACGGAGTCACCTAGTGCAG	8490 fluorescence intensity (a.u.)
TATGCATCACCTCGTAATCCACAACTGACTTACCCTTTCTCGGAGTCACCTAGTGCAG	12300 fluorescence intensity (a.u.)
TTTTAGTCTAACTGGTATGCGGGCCCCACATTTATTTTTTCGGAGTCACCTAGTGCAG	9210 fluorescence intensity (a.u.)
ATTTCGCATCGGTTTCTTCGTCAACTGATCCAATTAATTCCGGAGTCACCTAGTGCAG	8710 fluorescence intensity (a.u.)
ACCCTTGTTCATTCCTCCTCGCCTCGCCTCGCATCTCGGCCGGAGTCACCTAGTGCAG	8690 fluorescence intensity (a.u.)
CGTTTGGCCATTGTTCTCATTCAAAATTTTATACAAATATCGGAGTCACCTAGTGCAG	8980 fluorescence intensity (a.u.)
TCATACCGACTTCCCTTACTTCCACTTTAACATTTCTAGACGGAGTCACCTAGTGCAG	8290 fluorescence intensity (a.u.)

Sequence	binding signal
TCTCACCTCTCACTTCGACTTCTCGTCGCTGGCCGCCTCTCGGAGTCACCTAGTGCAG	10100 fluorescence intensity (a.u.)
GCTTCCCTTTCACTGCTCAAATGGCGTTTTGCCGCCCCACCGGAGTCACCTAGTGCAG	9430 fluorescence intensity (a.u.)
GTTTTTCCTATTCCTACGTTTTCTCAATCCTGCGATTCAACGGAGTCACCTAGTGCAG	9150 fluorescence intensity (a.u.)
TTTTTCCTTCTTATTCTGTTTCTGGTTGCTTTCTCACTCTCGGAGTCACCTAGTGCAG	15700 fluorescence intensity (a.u.)
CCGCCGCGTCGCGACGTCGACGGCGTTCCCGGCCGCCACCCGGAGTCACCTAGTGCAG	8650 fluorescence intensity (a.u.)
ATTGACGGTGATGAGGTATTCAACATTTTTCTTGTCCTTTCGGAGTCACCTAGTGCAG	9970 fluorescence intensity (a.u.)
GTATCTGAAGTACCTTGCCTTTGTTATAGCGGGGAAAATACGGAGTCACCTAGTGCAG	9600 fluorescence intensity (a.u.)
TCGGAAATTGAGTTCGTTCCTGGTTCTCACACTGCTCAAACGGAGTCACCTAGTGCAG	9190 fluorescence intensity (a.u.)
CCCTCTTCTTCGCCTTTGCTTCATGTTTCCGAAAAAGCGACGGAGTCACCTAGTGCAG	10400 fluorescence intensity (a.u.)
GTACAGCATAATTTAACCCAACACACACATCCTCCAGGTCCGGAGTCACCTAGTGCAG	8960 fluorescence intensity (a.u.)
GTGATGGTTCACTGCTTGTTGCTGGGTTTCGGGTAGGTGACGGAGTCACCTAGTGCAG	15500 fluorescence intensity (a.u.)
ATACACGCTCTCACCTCATCTCATCTCGTCGCCATTGACACGGAGTCACCTAGTGCAG	9790 fluorescence intensity (a.u.)
GGCCTATATATAACCATTGCTGTTGCCCTAAGAATGAATGCGGAGTCACCTAGTGCAG	9380 fluorescence intensity (a.u.)
CCCTCCCGATTTTTCACCTTTTGAAAAACTTATTATACATCGGAGTCACCTAGTGCAG	8850 fluorescence intensity (a.u.)
GGGGAGGGGAGGGAAGACCCGGGATTAGGCGAGGAGAGGGCGGAGTCACCTAGTGCAG	9660 fluorescence intensity (a.u.)
CTCCACAGTGTATTCTACCCGCTACTTGCATCAACTAATTCGGAGTCACCTAGTGCAG	9110 fluorescence intensity (a.u.)
TGCCTCTTTTTTTTTTTCTCAACACGTTACAGTTTCCTACCGGAGTCACCTAGTGCAG	10500 fluorescence intensity (a.u.)
TCAGTCCTCGGCCACCTCCCTCACTTGTCCAACCTTGTCTCGGAGTCACCTAGTGCAG	13100 fluorescence intensity (a.u.)
AGTACTGCTTCATCTAGCTCTCTCTAGTAGCTAGCTCTATCGGAGTCACCTAGTGCAG	8800 fluorescence intensity (a.u.)
ACCCATGATATATTAACTCTGTAGCTCACTTTTTTCTCTCCGGAGTCACCTAGTGCAG	10700 fluorescence intensity (a.u.)
TTTCTATGGTTATGTCTAATTCACCCTTATATTTATTTTTCGGAGTCACCTAGTGCAG	10200 fluorescence intensity (a.u.)

Sequence	binding signal
CATTTGTCCTGTTAACTTAACCATTGATATTTTCTTTTTACGGAGTCACCTAGTGCAG	11700 fluorescence intensity (a.u.)
TGTGTATTTTGGTTTGCTTTGTGTATTTTGGACCCAAAAACGGAGTCACCTAGTGCAG	10500 fluorescence intensity (a.u.)
GATTTCCTTTTGATTTGTGGGGTTGATTTAATTCTGTATCCGGAGTCACCTAGTGCAG	15700 fluorescence intensity (a.u.)
TATCATTATGTCCGAACGGTATACCTTCTTGTATCATTTCCGGAGTCACCTAGTGCAG	11200 fluorescence intensity (a.u.)
GTCTGCTGTCCATTGACCGGTTGACCGCCCTGACTGCCCCCGGAGTCACCTAGTGCAG	9770 fluorescence intensity (a.u.)
GTTAGTTGCGTTTGCATGCATGAGTGACACTACATACGCCCGGAGTCACCTAGTGCAG	8040 fluorescence intensity (a.u.)
GCCGACTAGTCAACCATCAGGTCAACCCAAAGCATTTCCCCGGAGTCACCTAGTGCAG	8150 fluorescence intensity (a.u.)
AAGCTTTGTCACTGGCTCAACATGACGATATATCGGTTAACGGAGTCACCTAGTGCAG	8130 fluorescence intensity (a.u.)
TCCTCACGCTTTCTCGGTTCCATTTGGCTTTATTAATAATCGGAGTCACCTAGTGCAG	11000 fluorescence intensity (a.u.)
GTATTCTAATTCTTTTTAACTTTGTATTGGTACGTGTGAACGGAGTCACCTAGTGCAG	8320 fluorescence intensity (a.u.)
GATGCGGGTGAGGTGCCGCGCTGTGGGGAGAGAGGGTGGGCGGAGTCACCTAGTGCAG	8560 fluorescence intensity (a.u.)
TCCCTCTGCGACTCTGCCAGTGCATTGCCTATCTCTATATCGGAGTCACCTAGTGCAG	12300 fluorescence intensity (a.u.)
ACTAACTCTTTCTTACCAGTAAATTCTTGGGGTAATTGTACGGAGTCACCTAGTGCAG	8910 fluorescence intensity (a.u.)
TTTTCTTCTCACTTCACTTACATGTGGGACTCACATATTACGGAGTCACCTAGTGCAG	8360 fluorescence intensity (a.u.)
AATTTTCACGCAACTTTCACCGCCTATTTCCTTCTTTTACCGGAGTCACCTAGTGCAG	9520 fluorescence intensity (a.u.)
TATATTTTGTATTCTTATTGGGTGAATTCCTCCCAACCTACGGAGTCACCTAGTGCAG	8720 fluorescence intensity (a.u.)
CCTTGCACCTCTCTCACACCCACTTGAGCTTTGTGTTCATCGGAGTCACCTAGTGCAG	11700 fluorescence intensity (a.u.)
GTTGTACAGTGCCTTACCTTTTTCTTAAGAAAACACTTCACGGAGTCACCTAGTGCAG	10200 fluorescence intensity (a.u.)
GCAGCACCGCTTGCCAGCTCGTAATTGCGGCCCATTAACCCGGAGTCACCTAGTGCAG	9040 fluorescence intensity (a.u.)
GAAATTCGTTGTGAACAGGCTAGGATCATATGTCCTAATTCGGAGTCACCTAGTGCAG	8480 fluorescence intensity (a.u.)
TCAGGGGCGGGCCCACTATTGATTCAAGGGTATTCAGACGCGGAGTCACCTAGTGCAG	8870 fluorescence intensity (a.u.)

Source: paper PMC7819943, “Rice protein-binding microarrays: a tool to detect cis-acting elements near promoter regions in rice”
